Results are given in words; binding and its absence hold for the method and conditions named. Binding seen in cells or lysates may run through a third protein. Here binding means that the protein was enriched with, or labelled near, the bait; the list need not be complete. Tags and fused reporters may be left off the sequences shown.
T1: murine, V5-tagged EGFL7 (mEGFL7) (mouse) (UniProt Q9QXT5)
T1 sequence: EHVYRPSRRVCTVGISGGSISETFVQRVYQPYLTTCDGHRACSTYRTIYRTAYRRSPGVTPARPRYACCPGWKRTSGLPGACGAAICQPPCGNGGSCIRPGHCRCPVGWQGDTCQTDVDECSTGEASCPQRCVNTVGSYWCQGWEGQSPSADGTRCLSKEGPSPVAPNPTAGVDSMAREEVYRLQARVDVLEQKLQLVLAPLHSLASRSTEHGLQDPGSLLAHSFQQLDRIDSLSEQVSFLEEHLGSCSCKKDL

Protein sequences, listed by entry. Tags and fused reporters are not part of them. Residues count along the entry.
UniProt P09055, residues 21-798: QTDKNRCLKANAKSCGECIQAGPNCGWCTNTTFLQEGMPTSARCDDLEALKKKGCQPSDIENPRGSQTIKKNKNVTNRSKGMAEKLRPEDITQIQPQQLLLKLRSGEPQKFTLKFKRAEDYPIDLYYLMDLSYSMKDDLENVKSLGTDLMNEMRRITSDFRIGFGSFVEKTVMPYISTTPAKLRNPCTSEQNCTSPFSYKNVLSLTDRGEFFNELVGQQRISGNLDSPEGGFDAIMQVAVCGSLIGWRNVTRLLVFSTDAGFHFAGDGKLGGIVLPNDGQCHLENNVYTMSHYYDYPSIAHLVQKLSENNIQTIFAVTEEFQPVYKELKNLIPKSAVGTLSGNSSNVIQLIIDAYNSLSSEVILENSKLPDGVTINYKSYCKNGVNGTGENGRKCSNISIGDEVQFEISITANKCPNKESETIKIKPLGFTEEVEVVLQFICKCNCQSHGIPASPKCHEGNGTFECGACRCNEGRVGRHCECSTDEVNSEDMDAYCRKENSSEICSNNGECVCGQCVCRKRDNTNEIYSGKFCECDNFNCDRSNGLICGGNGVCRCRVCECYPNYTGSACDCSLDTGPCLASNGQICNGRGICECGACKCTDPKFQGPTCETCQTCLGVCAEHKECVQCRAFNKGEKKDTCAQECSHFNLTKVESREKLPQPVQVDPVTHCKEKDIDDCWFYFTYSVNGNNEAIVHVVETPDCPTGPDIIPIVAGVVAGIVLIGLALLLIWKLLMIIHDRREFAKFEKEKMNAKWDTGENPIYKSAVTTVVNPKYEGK
UniProt P11835, residues 24-771: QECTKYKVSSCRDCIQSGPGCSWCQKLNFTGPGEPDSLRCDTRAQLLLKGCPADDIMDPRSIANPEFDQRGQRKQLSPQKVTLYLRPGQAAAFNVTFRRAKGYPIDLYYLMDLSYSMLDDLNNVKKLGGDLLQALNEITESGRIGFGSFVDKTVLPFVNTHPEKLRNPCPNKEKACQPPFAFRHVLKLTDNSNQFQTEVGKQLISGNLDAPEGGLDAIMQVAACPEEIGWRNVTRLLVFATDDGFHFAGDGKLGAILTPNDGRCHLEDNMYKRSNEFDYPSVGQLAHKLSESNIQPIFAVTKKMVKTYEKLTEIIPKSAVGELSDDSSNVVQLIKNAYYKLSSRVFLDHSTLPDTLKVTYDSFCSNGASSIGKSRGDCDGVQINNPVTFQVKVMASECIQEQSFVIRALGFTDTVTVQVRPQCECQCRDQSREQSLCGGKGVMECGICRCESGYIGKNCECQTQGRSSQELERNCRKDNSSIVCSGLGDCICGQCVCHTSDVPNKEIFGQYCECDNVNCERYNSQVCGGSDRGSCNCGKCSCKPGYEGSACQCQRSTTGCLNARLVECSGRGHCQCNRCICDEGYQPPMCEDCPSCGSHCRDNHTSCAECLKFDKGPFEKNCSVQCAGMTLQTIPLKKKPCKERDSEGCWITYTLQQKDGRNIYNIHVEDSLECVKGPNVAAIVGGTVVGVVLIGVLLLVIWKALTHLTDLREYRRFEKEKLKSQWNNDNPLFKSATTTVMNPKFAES


Biological target: T1, murine, V5-tagged EGFL7 (mEGFL7) (mouse)
Assay: affinity purification with mass spectrometry

Molecule | binding
integrin αV (ITGAV) (receptor) | binds
integrin β1 (ITGB1) (from UniProt P09055 21-798) (receptor) | binds
integrin β2 (ITGB2, also known as CD18) (from UniProt P11835 24-771) (receptor) | binds
integrin α4 (ITGA4) (receptor, UniProt Q00651 41-1039) YNLDPENALLYQGPSGTLFGYSVVLHSHGSKRWLIVGAPTASWLSNASVVNPGAIYRCGIRKNPNQTCEQLQSGSPSGEPCGKTCLEERDNQWLGVTLSRQPGENGSIVTCGHRWKNIFYMKSDNKLPTGICYVMPSDLRTELSKRMAPCYKDYTRKFGENFASCQAGISSFYTQDLIVMGAPGSSYWTGTVFVYNITTNQYKAFVDRQNQVKFGSYLGYSVGAGHFRSPHTTEVVGGAPQHEQIGKAYIFSIDENELNIVYEMKGKKLGSYFGASVCAVDLNADGFSDLLVGAPMQSTIREEGRVFVYINSGMGAVMVEMERVLVGSDKYAARFGESIANLGDIDNDGFEDIAIGAPQEDDLRGAVYIYNGRVDGISSTYSQRIEGQQISKSLRMFGQSISGQIDADNNGYVDVAVGAFQSDSAVLLRTRPVVIVEASLSHPESVNRTKFDCTENGLPSVCMHLTLCFSYKGKEVPGYIVLFYNVSLDVHRKAESPSRFYFFSNGTSDVITGSIRVSSSGEKCRTHQAFMRKDVRDILTPIHVEATYHLGHHVITKRNTEEFPPLQPILQQKKEKDVIRKMINFARFCAYENCSADLQVSAKVGFLKPYENKTYLAVGSMKTIMLNVSLFNAGDDAYETTLNVQLPTGLYFIKILDLEEKQINCEVTESSGIVKLACSLGYIYVDRLSRIDISFLLDVSSLSRAHEDLSISVHASCENEGELDQVRDNRVTLTIPLRYEVMLTVHGLVNPTSFVYGSSEENEPETCMAEKLNLTFHVINTGISMAPNVSVKIMVPNSFLPQDDKLFNVLDVQTTTGQCHFKHYGRECTFAQQKGIAGTLTDIVKFLSKTDKRLLYCMKADQHCLDFLCNFGKMESGKEASVHIQLEGRPSILEMDETSSLKFEIKATAFPEPHPKVIELNKDENVAHVFLEGLHHQRPKRHFTIIIITISLLLGLIVLLLISCVMWKAGFFKRQYKSILQEENRRDSWSYVNSKSNDD | binds

From paper doi:10.1101/2025.07.28.667281
